# According to the supplement of paper PMC3334620:
# Whole data set: some 33,000 sequences, median “E-score (-0.5 to 0.5)” near -0.0034, cut for the highest 2% near 0.25. The list shows a part of the results.
# Target: T1, Yap3 (UniProt P38749)
# T1 sequence: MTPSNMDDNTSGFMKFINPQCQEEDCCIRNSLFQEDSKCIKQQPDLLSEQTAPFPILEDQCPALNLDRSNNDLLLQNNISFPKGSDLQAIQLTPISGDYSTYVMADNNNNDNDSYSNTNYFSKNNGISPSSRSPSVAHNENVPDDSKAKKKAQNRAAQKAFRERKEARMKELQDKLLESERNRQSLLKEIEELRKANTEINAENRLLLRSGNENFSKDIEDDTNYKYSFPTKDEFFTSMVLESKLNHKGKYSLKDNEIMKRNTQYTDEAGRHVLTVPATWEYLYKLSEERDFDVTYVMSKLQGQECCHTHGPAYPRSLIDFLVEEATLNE
# Test: PBM E-score (8-mer binding enrichment) (E-score (-0.5 to 0.5)); higher = stronger / more preferred TF binding
# Details: protein concentration: 100 nM; construct: GST-full length
# Summary of the method: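 Each ungapped eight-base word and its reverse complement, pooled, received an E-score from the Universal PBM Analysis Suite. Underlying scans, normalised with masliner, recorded fluorescent anti-GST bound to GST-tagged yeast transcription factors. These were applied at about 100-200 nM to universal all-10-mer Agilent arrays double-stranded by primer extension.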
row,Sequence,PBM E-score
1,ACCTACAT,0.151
2,GGCTGGAA,-0.0643
3,ATGTGTCC,-0.004
4,CGTTTTGC,0.0549
5,CCAAAGTC,-0.174
6,CCTTCACG,0.0549
7,CCCTGCAG,-0.081
8,CGTGAGAG,-0.147
9,GGCCAAGA,-0.155
10,AACTAAGT,0.00048
11,CAAAAACC,0.111
12,GCATTACA,0.1
13,CTGACAGC,-0.133
14,GCTGGGGA,-0.231
15,CTCGCACA,0.0169
16,GGTACGAC,-0.107
17,CATCCCAA,0.0221
18,CAGACAGA,-0.0351
19,ACGATCAT,-0.017
20,CATATCTC,0.0984
21,GCCGAGAC,-0.159
22,GCACTCCA,-0.147

# Taken from the results shown (five entries):
row,Sequence,PBM E-score
5,CCAAAGTC,-0.174
6,CCTTCACG,0.0549
7,CCCTGCAG,-0.081
8,CGTGAGAG,-0.147
9,GGCCAAGA,-0.155

# Additional records.

row,Sequence,PBM E-score
1,ACTTTCAG,-0.104
2,CACTCCGC,-0.0508
3,CTCGATGC,0.0133
4,GGCTACTA,0.073
5,CACGTGAA,0.0672
6,AAAATAAC,0.0743
7,AGCACACG,-0.108
8,AGTGGATC,-0.0685
9,ATATGGCG,0.0887
10,GGTCAAGA,-0.0355
11,CGCGGACC,0.00612
12,CCTACTAG,0.00115
13,CAGGATCA,-0.0432
14,CAGGGTAA,0.0173
15,TATGGAAA,0.226
16,CGCCGAAA,0.0968
17,CGGACATC,-0.153
18,ATCGCTTG,-0.066
19,AAGTACGT,0.159
20,CGGGATCA,-0.111
21,CCTTTGTA,-0.135
22,CCACTGGG,-0.261

row,Sequence,PBM E-score
1,AGGCAATC,0.0761
2,ACTTTTCA,0.118
3,ACGAATGC,0.0672
4,GTCGGCAC,-0.111
5,AGCCCAAT,0.0144
6,CTACCCAG,-0.0458
7,CCGCATCC,-0.234
8,TAGCCTGA,-0.118
9,CTGAAGCA,-0.107
10,ACAAAAGG,-0.08
11,AGGGTTCC,-0.153
12,CCGGCGAC,-0.151
13,ACAATAAC,0.169
14,GCAACTCA,-0.0183
15,CGGTTACG,-0.0599
16,CAGGGGAG,-0.254
17,CTCTTCGC,-0.132
18,ATTATAGA,0.123
19,CACTTAGG,-0.0938
20,GGCCCTTA,-0.0239
21,ACGTAATA,0.44
22,GGTACATA,0.0587

row,Sequence,PBM E-score
1,GATCGATA,0.132
2,ATTTATTC,0.212
3,ATTGGGTA,0.179
4,AATCGCAC,-0.188
5,AACACGAT,0.0988
6,CCACAGAA,-0.107
7,GAAAACGC,-0.0899
8,AGGGGGAT,-0.18
9,GAATTTTA,0.169
10,ATGTGAGG,0.00272
11,ACTTGCCA,-0.0462
12,CTCATAGC,-0.194
13,ACTAGAAC,0.12
14,GGAATGCA,0.102
15,ATCACCGC,-0.0486
16,ACTCGCCA,0.142
17,ACCGAGCA,0.0359
18,AGAGACTG,-0.246
19,AGTTAGAT,-0.0437
20,GTTTATCA,0.214
